Results are given in words; binding and its absence hold for the method and conditions named. Some entries that bind do so weakly or less than the wild type.
How the values were obtained:
[1] = target: T1, clone N1: N-terminally truncated form of the sodium-dependent phosphate transport protein 2b (human) (UniProt O95436); experiment: immunoscreening of an OVCAR-3 cDNA phage expression library
T1 sequence (looked up): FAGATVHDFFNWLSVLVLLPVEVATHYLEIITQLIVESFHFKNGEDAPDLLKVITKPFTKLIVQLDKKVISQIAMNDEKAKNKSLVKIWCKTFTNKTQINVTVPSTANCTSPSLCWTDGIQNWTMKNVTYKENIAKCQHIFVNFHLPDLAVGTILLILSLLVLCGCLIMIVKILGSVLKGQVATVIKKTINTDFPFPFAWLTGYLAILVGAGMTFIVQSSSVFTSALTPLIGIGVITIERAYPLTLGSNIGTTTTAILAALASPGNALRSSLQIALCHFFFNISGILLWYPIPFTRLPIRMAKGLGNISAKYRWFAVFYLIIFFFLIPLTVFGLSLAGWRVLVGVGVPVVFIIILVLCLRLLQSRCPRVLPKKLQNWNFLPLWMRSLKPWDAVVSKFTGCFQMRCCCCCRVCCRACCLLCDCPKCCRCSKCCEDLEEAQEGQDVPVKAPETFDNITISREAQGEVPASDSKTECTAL

[2] = target: T2, wild type 312-340 peptide of SLC34A2 (Example 6; printed as SEQ ID NO: 8) (human); experiment: dot blot
T2 sequence (peptide): SPSLCWTDGIQNWTM

B1: Murine mAb MX35 (IgG1) (antibody, V domains shown)
VH: QVQLKQSGAELVKPGASVKMSCKASGYTFTGYNIHWVKQTPGQGLEWIGAIYPGNGDTSYKQKFRGKASLTADTSSSTVYMQLSSLTSEDSAVYYCARGETARATFAYWGQGTLVTVSA
VL: DIQMTQTTSSLPASLGDRVTISCSASQDIGNFLNWYQQKPDGTVKVLIYYTSSLYSGVPSRFSGSGSGTDYSLTISNLEPEDIATYYCQQYSKLPLTFGAGTKLELKR
notes: also called MX35 MAb; monoclonal antibody MX35
For B1, the binding [1] was “binds” and the binding [2] was “binds”.

From patent US20140193417A1 (LUDWIG INSTITUTE FOR CANCER RESEARCH, published 2014)
